Assay results taken from the supplement of paper PMC12067093, “Discovery and optimisation of a covalent ligand for TRIM25 and its application to targeted protein ubiquitination” (Chemical Science, 2025).
The list shows a part of the results.

Sequences of proteins named here, by UniProt entry; tags and fusion partners are left off. A change or cut given only in a name is not applied to a line headed by its entry.
UniProt Q13129: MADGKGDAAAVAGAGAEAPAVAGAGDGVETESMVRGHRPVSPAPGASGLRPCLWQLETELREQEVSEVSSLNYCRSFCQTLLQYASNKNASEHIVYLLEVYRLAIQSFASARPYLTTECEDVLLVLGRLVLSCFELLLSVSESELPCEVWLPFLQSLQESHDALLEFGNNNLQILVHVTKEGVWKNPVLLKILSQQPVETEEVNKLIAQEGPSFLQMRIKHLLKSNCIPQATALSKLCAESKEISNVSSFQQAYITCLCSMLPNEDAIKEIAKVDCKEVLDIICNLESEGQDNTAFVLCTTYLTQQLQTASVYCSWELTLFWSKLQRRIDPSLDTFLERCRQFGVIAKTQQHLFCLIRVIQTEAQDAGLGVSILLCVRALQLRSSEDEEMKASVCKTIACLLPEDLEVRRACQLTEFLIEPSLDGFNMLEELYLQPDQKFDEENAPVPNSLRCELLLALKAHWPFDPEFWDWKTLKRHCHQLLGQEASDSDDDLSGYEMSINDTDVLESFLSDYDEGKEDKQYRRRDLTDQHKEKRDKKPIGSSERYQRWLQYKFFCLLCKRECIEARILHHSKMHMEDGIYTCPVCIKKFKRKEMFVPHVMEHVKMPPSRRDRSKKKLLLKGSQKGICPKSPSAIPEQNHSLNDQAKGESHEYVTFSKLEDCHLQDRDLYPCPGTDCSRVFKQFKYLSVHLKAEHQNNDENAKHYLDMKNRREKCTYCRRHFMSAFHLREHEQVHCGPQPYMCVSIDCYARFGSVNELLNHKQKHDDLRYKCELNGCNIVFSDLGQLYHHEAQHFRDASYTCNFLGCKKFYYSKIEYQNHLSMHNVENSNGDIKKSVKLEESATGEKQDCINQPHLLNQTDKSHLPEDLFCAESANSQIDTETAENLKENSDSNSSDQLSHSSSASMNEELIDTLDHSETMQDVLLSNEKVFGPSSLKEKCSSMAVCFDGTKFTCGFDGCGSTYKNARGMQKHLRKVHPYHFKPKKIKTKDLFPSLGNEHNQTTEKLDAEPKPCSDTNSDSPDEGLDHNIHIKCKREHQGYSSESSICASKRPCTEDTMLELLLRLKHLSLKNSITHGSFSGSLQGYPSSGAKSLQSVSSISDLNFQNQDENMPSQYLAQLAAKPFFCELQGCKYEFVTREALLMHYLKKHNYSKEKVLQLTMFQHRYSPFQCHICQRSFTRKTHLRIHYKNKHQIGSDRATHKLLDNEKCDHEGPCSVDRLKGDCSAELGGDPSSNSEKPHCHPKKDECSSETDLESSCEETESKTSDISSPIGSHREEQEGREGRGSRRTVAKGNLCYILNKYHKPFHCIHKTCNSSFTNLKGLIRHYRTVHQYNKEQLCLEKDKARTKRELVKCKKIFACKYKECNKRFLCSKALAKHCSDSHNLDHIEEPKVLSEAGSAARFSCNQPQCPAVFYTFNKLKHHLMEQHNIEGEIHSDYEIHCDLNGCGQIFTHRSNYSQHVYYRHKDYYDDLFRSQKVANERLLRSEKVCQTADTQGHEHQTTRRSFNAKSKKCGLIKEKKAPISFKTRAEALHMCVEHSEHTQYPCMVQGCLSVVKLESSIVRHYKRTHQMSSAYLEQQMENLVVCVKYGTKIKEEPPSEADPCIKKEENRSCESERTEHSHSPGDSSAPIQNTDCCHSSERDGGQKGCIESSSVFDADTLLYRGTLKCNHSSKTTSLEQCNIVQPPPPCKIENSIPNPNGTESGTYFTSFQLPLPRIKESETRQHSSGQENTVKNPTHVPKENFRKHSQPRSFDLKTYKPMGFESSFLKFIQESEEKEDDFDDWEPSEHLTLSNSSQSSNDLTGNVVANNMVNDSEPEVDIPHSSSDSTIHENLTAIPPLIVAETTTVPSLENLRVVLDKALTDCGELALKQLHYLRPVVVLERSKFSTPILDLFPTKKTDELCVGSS
UniProt Q6PCD5: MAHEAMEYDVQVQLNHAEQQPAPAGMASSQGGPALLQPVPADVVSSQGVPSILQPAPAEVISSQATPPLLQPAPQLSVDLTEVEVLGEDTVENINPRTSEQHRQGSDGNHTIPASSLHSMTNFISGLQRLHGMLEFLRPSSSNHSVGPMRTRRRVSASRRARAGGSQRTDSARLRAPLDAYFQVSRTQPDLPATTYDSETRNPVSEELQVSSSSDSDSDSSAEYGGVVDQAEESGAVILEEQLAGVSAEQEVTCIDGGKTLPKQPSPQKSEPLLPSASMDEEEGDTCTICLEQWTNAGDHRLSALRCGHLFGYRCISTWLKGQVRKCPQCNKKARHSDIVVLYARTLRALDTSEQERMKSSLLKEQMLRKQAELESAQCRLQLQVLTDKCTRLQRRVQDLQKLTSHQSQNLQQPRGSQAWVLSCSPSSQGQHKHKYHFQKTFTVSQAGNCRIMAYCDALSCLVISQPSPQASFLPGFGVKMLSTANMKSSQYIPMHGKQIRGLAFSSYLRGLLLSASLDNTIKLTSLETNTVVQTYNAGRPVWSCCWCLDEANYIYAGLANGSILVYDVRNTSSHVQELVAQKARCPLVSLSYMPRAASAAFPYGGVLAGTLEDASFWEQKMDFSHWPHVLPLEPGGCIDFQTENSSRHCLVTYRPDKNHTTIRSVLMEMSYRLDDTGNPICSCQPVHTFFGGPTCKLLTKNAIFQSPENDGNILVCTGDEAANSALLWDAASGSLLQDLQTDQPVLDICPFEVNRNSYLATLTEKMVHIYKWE
UniProt P46063: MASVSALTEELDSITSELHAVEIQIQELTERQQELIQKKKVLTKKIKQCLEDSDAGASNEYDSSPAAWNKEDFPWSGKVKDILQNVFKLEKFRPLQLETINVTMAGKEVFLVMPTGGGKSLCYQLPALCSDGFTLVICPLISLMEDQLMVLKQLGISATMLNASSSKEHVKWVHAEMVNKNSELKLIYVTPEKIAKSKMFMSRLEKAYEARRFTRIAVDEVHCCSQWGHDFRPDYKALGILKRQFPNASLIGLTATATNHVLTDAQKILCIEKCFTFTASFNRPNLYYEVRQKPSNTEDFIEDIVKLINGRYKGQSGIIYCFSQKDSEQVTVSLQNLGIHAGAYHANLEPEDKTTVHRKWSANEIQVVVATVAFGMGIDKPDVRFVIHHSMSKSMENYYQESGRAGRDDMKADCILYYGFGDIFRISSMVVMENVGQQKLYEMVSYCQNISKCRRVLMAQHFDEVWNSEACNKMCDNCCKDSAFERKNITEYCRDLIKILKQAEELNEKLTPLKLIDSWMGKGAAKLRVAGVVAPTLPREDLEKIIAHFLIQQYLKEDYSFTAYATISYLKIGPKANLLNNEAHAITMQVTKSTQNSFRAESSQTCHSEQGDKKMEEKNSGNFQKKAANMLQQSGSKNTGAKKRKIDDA
UniProt Q5UIP0: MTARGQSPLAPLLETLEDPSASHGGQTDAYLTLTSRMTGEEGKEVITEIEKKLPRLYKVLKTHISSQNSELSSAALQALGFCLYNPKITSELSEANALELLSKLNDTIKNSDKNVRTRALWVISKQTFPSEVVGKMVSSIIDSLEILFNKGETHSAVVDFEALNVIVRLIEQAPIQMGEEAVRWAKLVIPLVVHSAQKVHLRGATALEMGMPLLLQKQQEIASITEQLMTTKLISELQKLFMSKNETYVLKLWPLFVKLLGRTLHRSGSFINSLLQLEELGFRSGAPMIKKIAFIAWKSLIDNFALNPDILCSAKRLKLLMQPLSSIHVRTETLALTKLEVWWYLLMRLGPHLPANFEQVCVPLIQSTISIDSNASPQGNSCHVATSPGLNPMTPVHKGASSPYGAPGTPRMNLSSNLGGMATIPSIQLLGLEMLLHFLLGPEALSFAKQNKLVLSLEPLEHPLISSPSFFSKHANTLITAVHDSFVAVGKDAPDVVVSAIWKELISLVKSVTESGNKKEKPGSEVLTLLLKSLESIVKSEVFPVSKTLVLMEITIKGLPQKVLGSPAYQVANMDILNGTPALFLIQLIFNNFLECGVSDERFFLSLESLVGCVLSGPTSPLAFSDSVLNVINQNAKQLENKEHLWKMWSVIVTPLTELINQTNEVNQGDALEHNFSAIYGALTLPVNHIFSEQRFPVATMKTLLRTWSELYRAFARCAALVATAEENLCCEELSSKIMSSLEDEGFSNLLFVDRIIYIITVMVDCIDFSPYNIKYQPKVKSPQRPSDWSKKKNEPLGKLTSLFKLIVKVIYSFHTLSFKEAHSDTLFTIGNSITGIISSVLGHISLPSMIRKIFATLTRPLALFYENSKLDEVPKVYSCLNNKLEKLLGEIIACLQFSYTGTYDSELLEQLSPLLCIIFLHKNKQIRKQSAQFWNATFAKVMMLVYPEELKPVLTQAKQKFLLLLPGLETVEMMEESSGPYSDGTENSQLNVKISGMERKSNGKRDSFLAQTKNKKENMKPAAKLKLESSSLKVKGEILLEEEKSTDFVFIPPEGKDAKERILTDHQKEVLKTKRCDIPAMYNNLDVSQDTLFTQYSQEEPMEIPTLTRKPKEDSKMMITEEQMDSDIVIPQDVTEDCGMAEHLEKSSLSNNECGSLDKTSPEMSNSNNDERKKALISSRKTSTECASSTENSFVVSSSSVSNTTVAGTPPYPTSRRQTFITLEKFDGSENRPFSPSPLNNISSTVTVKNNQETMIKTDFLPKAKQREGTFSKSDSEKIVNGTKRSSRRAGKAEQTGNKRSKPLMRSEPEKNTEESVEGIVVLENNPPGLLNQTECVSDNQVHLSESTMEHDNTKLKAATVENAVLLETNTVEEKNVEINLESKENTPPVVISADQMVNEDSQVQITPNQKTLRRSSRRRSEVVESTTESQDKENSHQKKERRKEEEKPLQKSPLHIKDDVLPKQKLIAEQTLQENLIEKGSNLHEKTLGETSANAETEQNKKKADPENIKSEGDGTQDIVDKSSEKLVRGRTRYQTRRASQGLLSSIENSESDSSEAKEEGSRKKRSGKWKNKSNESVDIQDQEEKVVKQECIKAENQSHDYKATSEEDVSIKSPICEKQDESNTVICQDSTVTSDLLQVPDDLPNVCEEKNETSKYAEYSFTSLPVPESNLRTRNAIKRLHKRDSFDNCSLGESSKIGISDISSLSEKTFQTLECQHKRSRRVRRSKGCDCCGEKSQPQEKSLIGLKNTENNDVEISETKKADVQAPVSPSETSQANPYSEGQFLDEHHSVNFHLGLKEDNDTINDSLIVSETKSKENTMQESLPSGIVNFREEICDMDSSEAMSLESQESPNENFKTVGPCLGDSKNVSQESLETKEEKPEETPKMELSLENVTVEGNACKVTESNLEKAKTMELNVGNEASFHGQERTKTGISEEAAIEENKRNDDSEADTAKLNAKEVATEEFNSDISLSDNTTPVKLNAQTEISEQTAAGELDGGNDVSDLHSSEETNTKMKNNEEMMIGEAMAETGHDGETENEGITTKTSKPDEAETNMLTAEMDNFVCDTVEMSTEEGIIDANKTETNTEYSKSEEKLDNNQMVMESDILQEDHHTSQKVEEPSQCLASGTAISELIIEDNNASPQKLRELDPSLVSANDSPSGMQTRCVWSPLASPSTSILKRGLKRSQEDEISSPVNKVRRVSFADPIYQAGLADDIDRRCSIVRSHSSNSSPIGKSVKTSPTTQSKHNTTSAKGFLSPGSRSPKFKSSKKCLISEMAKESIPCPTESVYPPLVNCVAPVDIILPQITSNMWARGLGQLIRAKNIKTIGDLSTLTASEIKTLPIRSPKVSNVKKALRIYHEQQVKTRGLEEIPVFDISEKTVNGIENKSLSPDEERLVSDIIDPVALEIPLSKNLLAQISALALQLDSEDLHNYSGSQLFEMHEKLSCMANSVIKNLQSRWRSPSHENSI
UniProt O43665: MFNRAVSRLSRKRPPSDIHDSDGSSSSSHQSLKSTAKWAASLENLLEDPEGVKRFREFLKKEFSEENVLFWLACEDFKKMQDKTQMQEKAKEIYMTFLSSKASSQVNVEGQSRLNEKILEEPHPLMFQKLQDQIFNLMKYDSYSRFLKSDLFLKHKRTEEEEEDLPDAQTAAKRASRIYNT
UniProt Q9BWE0: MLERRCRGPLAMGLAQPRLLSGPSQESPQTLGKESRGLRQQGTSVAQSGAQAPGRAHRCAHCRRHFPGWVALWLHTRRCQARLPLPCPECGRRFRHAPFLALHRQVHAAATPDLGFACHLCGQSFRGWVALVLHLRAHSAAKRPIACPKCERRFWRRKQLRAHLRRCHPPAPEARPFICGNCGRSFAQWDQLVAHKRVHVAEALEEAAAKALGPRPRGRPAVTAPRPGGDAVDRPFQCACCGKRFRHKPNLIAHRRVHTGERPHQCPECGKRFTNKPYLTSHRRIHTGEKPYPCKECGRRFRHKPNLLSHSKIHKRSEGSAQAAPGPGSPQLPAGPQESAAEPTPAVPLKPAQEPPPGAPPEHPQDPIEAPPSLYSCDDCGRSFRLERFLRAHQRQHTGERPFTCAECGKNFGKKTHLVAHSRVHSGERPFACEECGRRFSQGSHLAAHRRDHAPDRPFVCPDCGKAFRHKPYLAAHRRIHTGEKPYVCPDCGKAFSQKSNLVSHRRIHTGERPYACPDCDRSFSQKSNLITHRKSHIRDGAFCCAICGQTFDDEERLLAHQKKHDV

Compound: Cc1cc(ccc1-c1ccccc1)C(=O)N1CCCN(CC1)C(=O)CCl [compound 10]
Assay: probe-labelled cysteine peptide fold change vs DMSO (competition) (log2 fold change); higher = less target engagement (more negative = stronger competition)
Details: 50 µM; THP-1; incubation time: 4 h
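Also: competitive profiling in live THP-1 cells: cysteine peptides tagged with an iodoacetamide desthiobiotin (IA-DTB) probe, intensity after compound treatment relative to DMSO-treated cells.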

Target	probe-labelled cysteine peptide fold change
RLF_Q13129_808_DASYTCNFLGCK (UniProt Q13129)	-0.76
RLF_Q13129_1591_THQMSSAYLEQQMENLVVCVK (UniProt Q13129)	-0.17
RHOA_P61586_159_IGAFGYMECSAK (UniProt P61586)	-0.162
RGP1_Q92546_90_GQCILSTPPK (UniProt Q92546)	-0.305
RFWD3_Q6PCD5_315_CISTWLK (UniProt Q6PCD5)	-0.47
RIOK3_O14730_287_VIPTECAIK (UniProt O14730)	-0.205
RECQL_P46063_321_YKGQSGIIYCFSQK (UniProt P46063)	-0.479
RIF1_Q5UIP0_2450_LSCMANSVIK (UniProt Q5UIP0)	-0.14
RGS10_O43665_66_EFSEENVLFWLACEDFK (UniProt O43665)	0.101
REPIN1_Q9BWE0_167_CHPPAPEAR (UniProt Q9BWE0)	0.161
RECQL4_O94761_897_VCMGHER (UniProt O94761)	-0.0657
RNASET2_O00584_241_VCEDGPVFYPPPK (UniProt O00584)	0.112
RIOX1_Q9H6W3_584_CLEIYPQQADAMELLLGSYPEFVR (UniProt Q9H6W3)	0.489
RMC1_Q96DM3_635_GSPNFTPGEHCEEHVAFFK (UniProt Q96DM3)	-0.0985
RLF_Q13129_557_FFCLLCK (UniProt Q13129)	-0.255
RLF_Q13129_663_LEDCHLQDRDLYPCPGTDCSR (UniProt Q13129)	-0.571
RECQL_P46063_414_ADCILYYGFGDIFR (UniProt P46063)	0.455

No new results follow: an excerpt of the list.
Target	probe-labelled cysteine peptide fold change
RIF1_Q5UIP0_2450_LSCMANSVIK (UniProt Q5UIP0)	-0.14
RGS10_O43665_66_EFSEENVLFWLACEDFK (UniProt O43665)	0.101
REPIN1_Q9BWE0_167_CHPPAPEAR (UniProt Q9BWE0)	0.161
